Assay results as given in publication doi:10.1101/556266.
No constants are given. Whether binding was seen depends on the method and setting. In cells and extracts the contact can be indirect. Some binding calls cover weakened binding; strength is not graded here. For part of these data: Sequences can lack the tags named with a protein.

Chains of the proteins cited; added tags and fusions are not shown. Lines headed by an entry give the natural chain unless they say otherwise; changes in a name come on top. Residues count along the entry.
UniProt Q63604, residues 32-821: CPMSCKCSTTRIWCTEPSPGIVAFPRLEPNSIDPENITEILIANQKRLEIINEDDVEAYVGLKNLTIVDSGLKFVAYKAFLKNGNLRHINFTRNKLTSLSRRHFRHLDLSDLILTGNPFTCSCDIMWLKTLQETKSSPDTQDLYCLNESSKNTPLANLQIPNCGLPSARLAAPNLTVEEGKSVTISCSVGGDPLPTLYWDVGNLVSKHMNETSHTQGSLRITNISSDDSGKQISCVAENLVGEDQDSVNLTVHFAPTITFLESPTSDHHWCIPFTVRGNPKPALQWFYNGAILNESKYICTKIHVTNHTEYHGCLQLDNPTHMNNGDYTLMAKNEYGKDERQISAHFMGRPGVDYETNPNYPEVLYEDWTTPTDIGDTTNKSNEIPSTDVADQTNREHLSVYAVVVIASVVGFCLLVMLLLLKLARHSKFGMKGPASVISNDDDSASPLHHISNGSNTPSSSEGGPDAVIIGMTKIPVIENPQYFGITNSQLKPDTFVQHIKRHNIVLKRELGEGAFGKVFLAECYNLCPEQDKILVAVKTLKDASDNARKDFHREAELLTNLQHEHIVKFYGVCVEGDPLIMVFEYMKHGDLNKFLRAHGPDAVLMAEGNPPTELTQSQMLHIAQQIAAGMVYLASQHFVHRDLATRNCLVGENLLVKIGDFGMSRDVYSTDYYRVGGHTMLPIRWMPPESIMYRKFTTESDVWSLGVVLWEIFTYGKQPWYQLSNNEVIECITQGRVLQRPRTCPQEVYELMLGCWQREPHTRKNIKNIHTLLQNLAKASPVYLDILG
UniProt Q5JCS6: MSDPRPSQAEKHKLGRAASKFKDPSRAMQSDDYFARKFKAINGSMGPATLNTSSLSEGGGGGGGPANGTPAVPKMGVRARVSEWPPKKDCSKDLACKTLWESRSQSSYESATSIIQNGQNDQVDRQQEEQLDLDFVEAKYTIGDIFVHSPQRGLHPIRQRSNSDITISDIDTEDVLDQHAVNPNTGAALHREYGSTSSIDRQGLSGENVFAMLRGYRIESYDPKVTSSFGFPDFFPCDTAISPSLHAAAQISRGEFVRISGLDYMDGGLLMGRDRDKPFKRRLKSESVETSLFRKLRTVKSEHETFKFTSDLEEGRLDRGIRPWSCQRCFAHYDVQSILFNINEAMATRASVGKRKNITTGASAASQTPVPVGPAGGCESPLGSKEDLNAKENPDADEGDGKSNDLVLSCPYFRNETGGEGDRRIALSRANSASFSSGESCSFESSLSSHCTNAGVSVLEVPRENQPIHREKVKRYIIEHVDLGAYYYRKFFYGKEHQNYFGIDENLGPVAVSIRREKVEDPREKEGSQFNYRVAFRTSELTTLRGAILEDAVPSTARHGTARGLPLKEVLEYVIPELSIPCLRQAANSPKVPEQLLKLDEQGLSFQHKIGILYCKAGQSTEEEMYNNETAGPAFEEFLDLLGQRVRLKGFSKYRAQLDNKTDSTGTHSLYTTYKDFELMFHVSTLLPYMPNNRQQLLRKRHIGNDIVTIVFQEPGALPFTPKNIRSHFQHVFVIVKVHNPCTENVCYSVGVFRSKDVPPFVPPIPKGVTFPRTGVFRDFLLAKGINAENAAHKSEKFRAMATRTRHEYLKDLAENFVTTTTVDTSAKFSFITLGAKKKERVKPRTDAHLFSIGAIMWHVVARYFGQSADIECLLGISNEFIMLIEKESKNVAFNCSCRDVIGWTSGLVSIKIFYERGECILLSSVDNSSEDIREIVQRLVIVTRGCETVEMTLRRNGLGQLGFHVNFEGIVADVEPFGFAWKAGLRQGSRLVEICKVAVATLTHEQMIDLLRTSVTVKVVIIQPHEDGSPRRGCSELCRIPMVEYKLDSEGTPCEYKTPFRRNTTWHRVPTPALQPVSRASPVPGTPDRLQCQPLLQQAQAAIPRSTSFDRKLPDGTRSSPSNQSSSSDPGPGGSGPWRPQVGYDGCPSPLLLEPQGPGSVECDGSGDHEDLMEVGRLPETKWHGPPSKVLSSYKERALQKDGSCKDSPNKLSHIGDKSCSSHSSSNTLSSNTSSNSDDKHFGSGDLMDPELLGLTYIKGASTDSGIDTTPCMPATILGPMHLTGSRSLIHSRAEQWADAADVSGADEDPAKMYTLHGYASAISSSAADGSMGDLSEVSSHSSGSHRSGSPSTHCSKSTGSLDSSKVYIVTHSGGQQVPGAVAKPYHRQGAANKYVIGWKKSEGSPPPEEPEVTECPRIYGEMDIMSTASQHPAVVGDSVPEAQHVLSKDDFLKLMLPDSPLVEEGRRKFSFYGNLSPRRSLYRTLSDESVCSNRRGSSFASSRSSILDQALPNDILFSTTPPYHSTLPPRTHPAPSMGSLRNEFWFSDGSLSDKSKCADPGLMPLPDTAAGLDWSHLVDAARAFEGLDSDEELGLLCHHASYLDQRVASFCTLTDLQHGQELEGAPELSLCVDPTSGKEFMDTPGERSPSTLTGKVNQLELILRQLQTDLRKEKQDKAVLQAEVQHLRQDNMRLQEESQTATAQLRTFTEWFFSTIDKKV

How the values were obtained:
[1] = target: TrkB (endogenous, rat cerebellum) (rat (endogenous in cerebellum)) (UniProt Q63604); test: co-IP
GFP-Snapin = target: T1, GFP-Snapin (UniProt O95295); test: co-IP
T1 sequence: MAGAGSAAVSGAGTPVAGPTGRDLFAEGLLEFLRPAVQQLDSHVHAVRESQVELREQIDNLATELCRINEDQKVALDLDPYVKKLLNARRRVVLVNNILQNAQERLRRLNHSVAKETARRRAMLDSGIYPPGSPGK

binding [1] | binding (GFP-Snapin) | Substance
binds |  | SIPA1L2 (endogenous, rat cerebellum) (from UniProt Q5JCS6 1-1722)
 | binds | SIPA1L2-F638A-L641A-mCherry (from UniProt Q5JCS6 1-1722)
 | binds | fl-SIPA1L2-mCherry (from UniProt Q5JCS6 1-1722)
